Data as given in PubChem BioAssay AID1671195 (Yale University, 2021)
The whole screen tested about 22,000 reagents; shown is a part drawn at random. About 1,510 of them (6.9%) count as active. 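Active includes knockdowns raising or lowering LDL uptake; positive z-scores mean more uptake, negative mean less.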 No sequences are given here.

- Aim: 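Genes whose knockdown alters LDL uptake in liver cancer cells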 (primary screen)
- Cell system: human Huh7 hepatoma cells
- Knock-down reagent: siRNA pool against human genes, 18 nM
- Duration: about 2 to 2.5 days of knockdown, then 8 h LDL uptake
- Challenge: DiI-labelled LDL at 30 µg/ml for 8 h, in lipoprotein-deficient serum medium
- Measurement: 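Fluorescent LDL signal imaged in cells, scaled to the plate median, robust z-score for each replicate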
- Scale: robust z-score: higher = more LDL uptake after knockdown
- Rule for the call: 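Active when two or more replicates show a robust z-score above 2 or below -2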

ZNF276 (zinc finger protein 276) scored robust z-score, replicate 1 = 2.27; robust z-score, replicate 2 = 1.3; robust z-score, replicate 3 = 1.09; inactive.
Depletion of SLBP (stem-loop histone mRNA binding protein) resulted in: robust z-score, replicate 1 = -0.548; robust z-score, replicate 2 = -1.53; robust z-score, replicate 3 = 0.667; inactive.
UBE2U (ubiquitin conjugating enzyme E2 U) showed robust z-score, replicate 1 = 0.161; robust z-score, replicate 2 = -1.83; robust z-score, replicate 3 = -0.603; inactive.
Against CRYGC (crystallin gamma C), the values are robust z-score, replicate 1 = -0.197; robust z-score, replicate 2 = 0.532; robust z-score, replicate 3 = -0.111; inactive.
With knock-down of UPK1A (uroplakin 1A) the results were robust z-score, replicate 1 = -1.11; robust z-score, replicate 2 = -1.9; robust z-score, replicate 3 = -0.81; inactive.
After knock-down of TMLHE (trimethyllysine hydroxylase, epsilon) the results were robust z-score, replicate 1 = 1.99; robust z-score, replicate 2 = 1.3; robust z-score, replicate 3 = 1.95; inactive.
Against LOC400586 (retired record), the entry reads robust z-score, replicate 1 = -0.967; robust z-score, replicate 2 = -0.939; robust z-score, replicate 3 = -0.705; inactive.
With knock-down of LINC01561 (long independently transcribed non-coding RNA 1561), the record shows robust z-score, replicate 1 = 0.268; robust z-score, replicate 2 = 0.798; robust z-score, replicate 3 = 0.0681; inactive.
With knock-down of USP22 (ubiquitin specific peptidase 22), the record shows robust z-score, replicate 1 = 1.24; robust z-score, replicate 2 = -0.106; robust z-score, replicate 3 = 1.43; inactive.
Against LOC440751 (retired record), the entry reads robust z-score, replicate 1 = -1.14; robust z-score, replicate 2 = -0.957; robust z-score, replicate 3 = -1.33; inactive.
MTOR (mechanistic target of rapamycin kinase) gave robust z-score, replicate 1 = 0.27; robust z-score, replicate 2 = -0.225; robust z-score, replicate 3 = -0.181; inactive.

Laid out differently: entries from further up.
gene	robust z-score, replicate 1	robust z-score, replicate 2	robust z-score, replicate 3	Call
LOC400586 (retired record)	-0.967	-0.939	-0.705	inactive
LINC01561 (long independently transcribed non-coding RNA 1561)	0.268	0.798	0.0681	inactive

Continued:
After knock-down of CCNA1 (cyclin A1) the results were robust z-score, replicate 1 = 0.113; robust z-score, replicate 2 = 1.34; robust z-score, replicate 3 = 0.406; inactive.
After knock-down of SCOC (short coiled-coil protein), the screen gave robust z-score, replicate 1 = 1.99; robust z-score, replicate 2 = 2.31; robust z-score, replicate 3 = 2.62; active.
After knock-down of KCNK15 (potassium two pore domain channel subfamily K member 15) the results were robust z-score, replicate 1 = -0.075; robust z-score, replicate 2 = -0.107; robust z-score, replicate 3 = -0.419; inactive.
With knock-down of RTL10 (retrotransposon Gag like 10), the screen gave robust z-score, replicate 1 = 0.734; robust z-score, replicate 2 = 0.942; robust z-score, replicate 3 = 0.836; inactive.
For H2AJ (H2A.J histone), the entry reads robust z-score, replicate 1 = 0.218; robust z-score, replicate 2 = 2.07; robust z-score, replicate 3 = -0.904; inactive.
With knock-down of CEP41 (centrosomal protein 41), the record shows robust z-score, replicate 1 = 0.237; robust z-score, replicate 2 = 0.143; robust z-score, replicate 3 = 0.373; inactive.
With knock-down of ACAD11 (acyl-CoA dehydrogenase family member 11) the results were robust z-score, replicate 1 = 0.104; robust z-score, replicate 2 = 0.131; robust z-score, replicate 3 = -0.195; inactive.
With knock-down of LOC729645, the record shows robust z-score, replicate 1 = -1.06; robust z-score, replicate 2 = -0.669; robust z-score, replicate 3 = -0.878; inactive.
After knock-down of SS18L1 (SS18L1 subunit of BAF chromatin remodeling complex) the results were robust z-score, replicate 1 = 0.382; robust z-score, replicate 2 = -0.12; robust z-score, replicate 3 = 0.299; inactive.
Against LOC440070 (retired record), the values are robust z-score, replicate 1 = -0.203; robust z-score, replicate 2 = -0.128; robust z-score, replicate 3 = -0.666; inactive.
After knock-down of TSLIG1 (tRNA splicing ligase complex subunit 1) the results were robust z-score, replicate 1 = 0.494; robust z-score, replicate 2 = 0.235; robust z-score, replicate 3 = 0.444; inactive.
Depletion of CSNK1G2-AS1 (CSNK1G2 antisense RNA 1) came out at: robust z-score, replicate 1 = -1.01; robust z-score, replicate 2 = -0.929; robust z-score, replicate 3 = -0.817; inactive.
Knock-down of TESC (tescalcin) gave: robust z-score, replicate 1 = 0.686; robust z-score, replicate 2 = 0.523; robust z-score, replicate 3 = 1.71; inactive.
